Measured values from patent US8114862B2, “TGR5 modulators and methods of use thereof” (Intercept Pharmaceuticals, Inc., priority 2008, dated 2012).
Read-outs that look alike come from different tables or passages of the source.

Assays:
HepG2 cells [1] = assay: cells; conditions: Homo sapiens, HepG2, 4 h, read-out: APOPTOSIS Caspase-3 activation EC50
HepG2 cells [2] = assay: cells; conditions: Homo sapiens, HepG2, 4 h, read-out: NECROSIS LDH release EC50

EC50 (HepG2 cells [1]): 4 µM
Compound: CC/C(=C(\c1ccccc1)c1ccc(OCCN(C)C)cc1)c1ccccc1 [Tamoxifen]
EC50 (HepG2 cells [2]): 35 µM
